Values of other authors as cited in patent US20110091489A1, “SURVIVIN PEPTIDE VACCINE” (Survac ApS, priority 2005, published 2011).
Some entries share one result that the patent states for a list of compounds.

Tested on: survivin
Details: exposure of breast carcinoma MCF-7 or cervical carcinoma HeLa cells; cited from earlier work

| SMILES | Increased survivin expression |
| --- | --- |
| CC(=O)O[C@H]1C(=O)[C@@]2(C)[C@H]([C@H](OC(=O)c3ccccc3)[C@]3(O)C[C@H](OC(=O)[C@H](O)[C@@H](NC(=O)c4ccccc4)c4ccccc4)C(C)=C1C3(C)C)[C@]1(OC(C)=O)CO[C@@H]1C[C@@H]2O [Taxol] | 4-5 fold |
| COc1cccc2c1C(=O)c1c(O)c3c(c(O)c1C2=O)C[C@@](O)(C(=O)CO)C[C@@H]3O[C@H]1C[C@H](N)[C@H](O)[C@H](C)O1 [Adriamycin] | 4-5 fold |
